Assay results reported in publication PMC10163288.
The other results are listed elsewhere or left out.

B1: il10ra_site1_normal_mot_HHH_b2_00273_000000062_0001_23_39_H_._HHH_b2_04285_0001_0000400025_0000001_0 (protein)
chain: SSSSDLEEQIEELREELREALERGDKELALRLLQELIRLAFATSDQELLRELWEIVRKLASSSSS
B2: il10ra_site1_sap_21_mot_104c758fc23488854646035ccb2100c6_0001_000000282_0001_15_29_H_._203a44625a3a2ba431098544127a80a6_0001_0001_0000100001_0000002_0_0001_af2p … (protein)
chain: SSSEEEVEELVKEVERVAEERGDPEARLAARVLKASAEAARELNNEEALRIISWALRAFKQVFSS
B3: il10ra_site1_sap_14_mot_HHH_b2_03038_000000109_0001_1_20_H_._HHH_b1_00475_0001_0000200015_0000001_0_0001 (protein)
chain: SSDTHQEFFRVVREAIEAAADNDDEEAEELVKEAEEIAKEIGNQVARWIVEFVKRLVEKLRSSSS
B4: il10ra_site1_normal_mot_8756ee2cf497b5429c717dfc0c0bcfd6_0001_000000186_0001_1_13_H_._HHH_b2_05518_af2_0001_0000900034_0000001_0 (protein)
chain: SSSSDEENHELYELLRELAELHAEGDRERAEKLAEELEELAEELNNDVVLAQVKYLLRALSSSSS
B5: il10ra_site1_normal_mot_HHH_b1_02004_000000220_0001_1_19_H_._HHH_b1_04324_af2_0001_0000100003_0000002_0 (protein)
chain: SSSSDEEFEEFKRLVEKVAELLEEGDEEKAEELIERLEELAEERNTPALEWSVRLLKRVLSSSSS
B6: il10ra_site1_sap_17_mot_HHH_b1_06914_000000280_0001_1_18_H_._HHH_b2_02639_0001_0000100004_0000002_0_0001_af2pred_0001 (protein)
chain: SDEEERIFRIVIEAYRELLKAGVSKEEIAKANARLVEALRRGVSAEEVEEIAEEIVREAKEESSS
B7: il10ra_site1_normal_mot_HHH_b1_06789_af2_000000041_0001_1_20_H_._HHH_b2_01741_0001_0000300028_0000001_0_af2pred_0001 (protein)
chain: SSSSNTEHLVRLALRAAENAAKKGDPERAEEILKLAEFLAELANDPELEELVEEVRKRVEGSSSS
B8: il10ra_site1_sap_13_mot_HHH_b2_06979_000000158_0001_42_57_H_._HHH_b1_06674_0001_0000300029_0000001_0_0001 (protein)
chain: SSSSSTESEELQELIERAAELLRNGDEEEAEEILQEVQRLAEEAGNWVIRFAAEVLLKNISSSSS
B9: il10ra_site1_normal_mot_HHH_b1_02997_000000220_0001_39_52_H_._HHH_b1_05152_af2_0001_0000500023_0000001_0_af2pred_0001 (protein)
chain: SSSSSSETEEIIRLIRRALELAREDPEEAEELLRRAEELAEEINNLTLRFQVEFALRRLSSSSSS
B10: il10ra_site1_sap_20_mot_HHH_b1_02637_000000294_0001_42_59_H_._HHH_b1_01330_af2_0001_0000400015_0000001_0_0001 (protein)
chain: SSSSDEAQEEAEELLEELEKALREGDREKALRIAQRAIRAAFQAGDPELLRAIWELLKEFNSSSS
B11: il10ra_site1_sap_23_mot_HHH_b2_03220_af2_000000223_0001_23_40_H_._HHH_b2_07389_af2_0001_0000300019_0000001_0_0001_af2pred_0001 (protein)
chain: SSSSSAFEDIVRLALKTAEIAKEKGDEEKVERALEIARRSARLANDPELEELVEEVEERLSSSSS
B12: il10ra_site1_normal_mot_HHH_b2_00479_000000091_0001_1_12_H_._HHH_b2_05755_0001_0000100011_0000002_0_af2pred_0001 (protein)
chain: SSSSDELRRLVELAREILEVIQEGDEERAEELLEELEELAKESNNPLAEFILEALRRRLGSSSSS
B13: il10ra_site1_sap_24_mot_HHH_b2_03183_af2_000000055_0001_40_56_H_._HHH_b1_03848_0001_0000100008_0000001_0_0001 (protein)
chain: SSSDVEEEVEELEERIRELIEEGDRERAVRLAQRLVQLAFEANDPRIFRAIIELAELIKRISSSS
B14: il10ra_site1_normal_mot_HHH_b2_00622_af2_000000153_0001_40_57_H_._HHH_b2_08056_0001_0000200009_0000001_0_af2pred_0001 (protein)
chain: SSSSDLEELRRLVEELLEELEELGDERAVEALRRLLRAAERLKNPQSLRVALWLAEAALEESSSS
B15: il10ra_site1_sap_17_mot_HHH_b1_08742_000000056_0001_1_20_H_._HHH_b2_02292_af2_0001_0000400025_0000002_0_0001 (protein)
chain: SSSSDEERHKLAELVMRAARLMFRGNPEEAREVLEEAEQLARELGDERMLKLVEQLLKTLSSSSS
B16: il10ra_site1_sap_19_mot_HHH_b1_04228_af2_000000161_0001_1_18_H_._HHH_b2_03736_af2_0001_0000600013_0000001_0_0001 (protein)
chain: SSSSDAEERVEELLELLEELLERNDEEEFAEVAQEAVRLAFEAGNKELLRQIWELIQRLRSSSSS
B17: il10ra_site1_normal_mot_HHH_b1_06789_af2_000000041_0001_1_20_H_._HHH_b2_02893_0001_0000300015_0000001_0_af2pred_0001 (protein)
chain: SSSSSSSEELVKIALKAVRIAFEAGDPEQAKRALEIARLLAEQANNPELEEEVEELEKELSSSSS
B18: il10ra_site1_sap_20_mot_HHH_b1_05357_000000034_0001_23_39_H_._HHH_b1_03033_0001_0000400019_0000002_0_0001_af2pred_0001 (protein)
chain: SSSSSRERAELILHLVRWLFEAGDEEAIKIFVKAIRDLYKKTGDPEIEKILEEAEELLEQLSSSS
B19: il10ra_site1_sap_23_mot_HHH_b2_00479_000000091_0001_1_12_H_._HHH_b1_06081_0001_0000500012_0000001_0_0001_af2pred_0001 (protein)
chain: SSSSSSDIEEEVERLLEEAEKIDDPLERSYVLVRAFAAANQNNNEELRRLVEEVAIKLTSSSSSS
B20: il10ra_site1_normal_mot_HHH_b2_02497_000000220_0001_1_20_H_._d4a0d7e14d3257bbacf2cba0c18c7893_0001_1_af2_0001_0000400025_0000001_0 (protein)
chain: DEEYELIREIIELAEDPELQRLLQLLIQFFIRGDPEVRELLEELVELLKQGDPEEAAELLKEFLK
B21: il10ra_site1_sap_25_mot_HHH_b1_02665_000000293_0001_1_18_H_._HHH_b1_05915_0001_0000100004_0000001_0_0001 (protein)
chain: SSSSSDEDEQHIRALLWFARYAPNPEAARMMLERALRLAEELGNEELLREAERLLEELNSSSSSS
B22: il10ra_site1_normal_mot_2b57f6184e3cbf08022d7a5dd7fdd81c_0001_af2_000000095_0001_34_50_H_._HHH_b1_00771_0001_0000300018_0000001_0 (protein)
chain: SSSSDELEEYAELALRFAEIAARNGDPETAKRILRVAIEALRNAGNPELVEELEELLEELSSSSS
B23: il10ra_site1_normal_mot_8756ee2cf497b5429c717dfc0c0bcfd6_0001_000000186_0001_1_13_H_._HHH_b2_07310_af2_0001_0000100002_0000001_0_1_af2pred_dldesign_0_af2pred (protein)
chain: SSSSSAEQERLKELIRRAAELLYAGRPEEAARLLAEAEELAKKLGNEVALRTLDYLRRHVESSSS
B24: il10ra_site1_sap_23_mot_HHH_b2_03220_af2_000000223_0001_23_40_H_._HHH_b1_07965_af2_0001_0000400006_0000002_0_0001 (protein)
chain: SSSSSEEERVEELLEEVEELRKEGDEKRAIEVLQEAVRLALRISDEELLQEIWEAAKALGSSSSS
B25: il10ra_site1_sap_15_mot_HHH_b1_02769_af2_000000118_0001_1_18_H_._HHH_b1_08389_0001_0000200013_0000001_0_0001 (protein)
chain: SSSSEEERIVELLFRAVEALANGNPEEAEKLVEEAEELARELGDEELERYIEIAKHFIEAHSSSS
B26: il10ra_site1_sap_20_mot_a6c796b944619e241e020fd597ddb6da_0001_af2_000000092_0001_15_31_H_._HHH_b2_01456_af2_0001_0000200013_0000002_0_0001 (protein)
chain: SSSDAREEVWELLREALELLANGDPEKAEEVIERARELAEEAGSRLFEHVIETLERQLELNSSSS
B27: il10ra_site1_normal_mot_8756ee2cf497b5429c717dfc0c0bcfd6_0001_000000186_0001_1_13_H_._HHH_b2_08062_af2_0001_0000200008_0000001_0 (protein)
chain: SSSSDEELEKLFELLRRIAELDHEGDKEEARELLEEAEELAKELGNDVARAQLEYLKELVNSSSS
B28: il10ra_site1_normal_mot_HHH_b1_00999_000000080_0001_41_55_H_._HHH_b2_06992_0001_0000100004_0000002_0 (protein)
chain: SSSSSSSEEEVEELLEEAKEIDDPKERNRVLLEALRIAIQNQNPELLRLVWEVVKRLGSSSSSSS
B29: il10ra_site1_normal_mot_HHH_b1_01880_000000285_0001_23_39_H_._HHH_b2_02582_0001_0000100002_0000002_0_af2pred_0001 (protein)
chain: SSSSSSDEFEELLEEAKRLAEEEGDEKIRIAIRIAERSYRESGDPKIKKLLKALLRLLSSSSSSS
B30: il10ra_site1_normal_mot_HHH_b1_03094_000000294_0001_1_20_H_._HHH_b1_08744_0001_0000100004_0000001_0 (protein)
chain: SSSSDEENQEALELSLEAVELLLRGNPEEAKEVLEEALELAERGNNERLARVIEDLLRVIDSSSS
B31: il10ra_site1_normal_mot_HHH_b1_02997_000000220_0001_39_52_H_._HHH_b1_04476_0001_0000500018_0000001_0_af2pred_dldesign_0_af2pred (protein)
chain: SSSSSSSNEEVVALLRRAMEEPDPEEAKRLAEEALRLAQANNNEILAHTAQLLLEQLESSSSSSS
B32: il10ra_site1_sap_15_mot_HHH_b1_03327_000000294_0001_1_19_H_._HHH_b1_01285_af2_0001_0000300013_0000001_0_0001 (protein)
chain: SSSSEEERVEELQEEIKELEEEGDYERVLRLLQEILRLIFQLGDKELLRRLWELLKKLAEERSSS
B33: il10ra_site1_normal_mot_1cde5897893f3d1588f92be3b001cdf2_0001_af2_000000130_0001_54_65_H_._HHH_b2_05489_0001_0000300015_0000001_1_af2pred_0001 (protein)
chain: SSSSSSDEEERAEELAREAEEIEDPHEAIRLLREAARLAAKTDNPELLKLVAEVAKKLLSSSSSS
B34: il10ra_site1_sap_3_mot_HHH_b2_06142_af2_000000101_0001_1_18_H_._HHH_b1_06736_0001_0000100001_0000002_0_0001_af2pred_dldesign_0_af2pred (protein)
chain: SSSSNPQEVVQLIHEARRLLDEGRLDEARAALDKARALAEALGDAELIAAVDKVRKLLEASSSSS
B35: il10ra_site1_normal_mot_8756ee2cf497b5429c717dfc0c0bcfd6_0001_000000186_0001_1_13_H_._HHH_b1_00068_0001_0000100008_0000002_0 (protein)
chain: SSSSDFELAQRAVELLAEVDEQGDEELLEEAREFVEEAIKEAKSDVIRVQLEYILRQLERSSSSS
B36: il10ra_site1_normal_mot_HHH_b1_04275_000000150_0001_22_39_H_._HHH_b1_06183_af2_0001_0000700027_0000002_0 (protein)
chain: SSSSSDQEVSRLLLRVFRLLLRGDEEEAEKLLEEAKRLAEELNDPRLEEAVRVVEEAFESSSSSS
B37: il10ra_site1_normal_mot_HHH_b2_04679_000000194_0001_21_38_H_._HHH_b2_07864_af2_0001_0000100014_0000001_1 (protein)
chain: SSSSTDEHQRLYRLLRELIELVSEGDEEEFEELLEEVKRLAEELNNFIIRFVVRLLERQLTSSSS

Each binder was assayed against il10ra, Q13651 (assay: yeast display titration).

Apparent Kd, inactive:
B1 no binding seen, B2 no binding seen, B3 no binding seen, B4 no binding seen, B5 no binding seen, B6 > 1120 nM, B7 no binding seen, B8 no binding seen, B9 no binding seen, B10 no binding seen, B11 no binding seen, B12 no binding seen, B13 no binding seen, B14 no binding seen, B15 no binding seen, B16 no binding seen, B17 no binding seen, B18 no binding seen, B19 no binding seen, B20 no binding seen, B21 no binding seen, B22 no binding seen, B23 no binding seen, B24 no binding seen, B25 no binding seen, B26 no binding seen, B27 no binding seen, B28 no binding seen, B29 no binding seen, B30 no binding seen, B31 no binding seen, B32 no binding seen, B33 no binding seen, B34 no binding seen, B35 no binding seen, B36 no binding seen, B37 no binding seen
